PubChem BioAssay AID1259425 | University of Nebraska Medical Center – 2018

Screen: 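Compare each knockdown with KSR1 silencing using changes in marker transcripts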 (primary screen)
Cells: HCT116 human colon cancer cells
Knock-down reagent: siRNA pool against human genes, 50 nM siRNA
Read-out: 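mRNA of six signature genes measured together by branched-DNA assay after 50 nM siRNA pool, blank removed, divided by geometric mean of two housekeeping genes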
Direction: BNIP3L mRNA: higher = more BNIP3L transcript after knockdown; NDRG1 mRNA: higher = more NDRG1 transcript after knockdown
This is one part, drawn at random, of about 14,000 reagents. Some reagents were tested in more than one well and are listed for each. Not all columns of the deposit are shown. Reagent sequences are not shown. The record does not give: the time to read-out.

gene | BNIP3L mRNA, set 1 | NDRG1 mRNA, set 1
CPN2 | 0.127 | 0.238
ADGRE2 | 0.0929 | 0.0613
RGS11 | 0.132 | 0.312
PEX6 | 0.055 | 0.145
ROCK2 | 0.0417 | 0.127
FILIP1L | 0.106 | 0.126
PRMT6 | 1.11 | 1.66
IFT38 | 0.126 | 0.271
URI1 | 0.0643 | 0.214
AP3M1 | 0.0836 | 0.0969
EXTL3 | 0.102 | 0.109
UBTD1 | 0.28 | 0.457
GGA1 | 0.107 | 0.678
TAL2 | 0.086 | 0.0387
EIF3FP2 | 0.127 | 0.249
IGDCC4 | 0.113 | 0.0854
EXOC4 | 0.0453 | 0.141
EPCIP | 0.0941 | 0.375
IDUA | 0.0647 | 0.171
ATP2B1 | 0.0659 | 0.162
CYP4F3 | 0.135 | 0.354
FOXJ2 | 0.0877 | 0.0999
STX2 | 0.0644 | 0.0812
NBPF1 | 0.0965 | 0.221
ACAA1 | 0.252 | 0.571
FUS | 0.0926 | 0.225
CAPN2 | 0.0633 | 0.268
PARS2 | 0.0584 | 0.154
ADAM28 | 0.129 | 0.182

7 of these entries in another layout:
| gene | BNIP3L mRNA, set 1 | NDRG1 mRNA, set 1 |
| --- | --- | --- |
| EIF3FP2 | 0.127 | 0.249 |
| IGDCC4 | 0.113 | 0.0854 |
| EXOC4 | 0.0453 | 0.141 |
| EPCIP | 0.0941 | 0.375 |
| IDUA | 0.0647 | 0.171 |
| ATP2B1 | 0.0659 | 0.162 |
| CYP4F3 | 0.135 | 0.354 |

The list goes on:
gene | BNIP3L mRNA, set 1 | NDRG1 mRNA, set 1
RDH8 | 0.0851 | 0.113
PTPN9 | 0.0535 | 0.103
PPAN | 0.131 | 0.223
ZNF222 | 0.0922 | 0.121
ARID4A | 0.164 | 0.145
ZNF608 | 0.135 | 0.19
SIRPA | 0.118 | 0.277
INIP | 0.16 | 0.101
FLOT2 | 0.0875 | 0.407
FXR1 | 0.0816 | 0.2
INSR | 0.0814 | 0.0789
SLC7A3 | 0.12 | 0.131
FAF2 | 0.0874 | 0.126
SMC1A | 0.192 | 0.584
CPED1 | 0.175 | 0.2
ADAMTSL3 | 0.0845 | 0.0929
ADAMTSL3 | 0.123 | 0.226
KDELR3 | 0.0936 | 0.323
GNS | 0.105 | 0.225
SNRK | 0.169 | 0.0521
ASTE1 | 0.1 | 0.201
